Reference: the supplement of paper PMC10849652
This is one part of the list. Residues, ends and D or L forms follow the SMILES beside them. *: point of attachment. Cbz = O=C(OCc1ccccc1)*

Chains of the proteins cited; added tags and fusions are not shown. Lines headed by an entry give the natural chain unless they say otherwise; changes in a name come on top.
UniProt Q9NWM8: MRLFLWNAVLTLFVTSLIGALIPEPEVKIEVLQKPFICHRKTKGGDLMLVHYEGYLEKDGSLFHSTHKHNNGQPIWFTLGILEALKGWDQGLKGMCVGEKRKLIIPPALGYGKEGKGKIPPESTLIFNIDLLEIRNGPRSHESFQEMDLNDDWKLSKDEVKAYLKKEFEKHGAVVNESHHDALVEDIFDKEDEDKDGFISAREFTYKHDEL
UniProt Q96KR6: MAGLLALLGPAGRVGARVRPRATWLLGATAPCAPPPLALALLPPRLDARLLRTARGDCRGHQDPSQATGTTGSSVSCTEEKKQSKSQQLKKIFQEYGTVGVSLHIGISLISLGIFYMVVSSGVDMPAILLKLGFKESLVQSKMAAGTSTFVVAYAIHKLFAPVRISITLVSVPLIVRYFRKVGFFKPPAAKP
UniProt P39748, whole entry, looked up: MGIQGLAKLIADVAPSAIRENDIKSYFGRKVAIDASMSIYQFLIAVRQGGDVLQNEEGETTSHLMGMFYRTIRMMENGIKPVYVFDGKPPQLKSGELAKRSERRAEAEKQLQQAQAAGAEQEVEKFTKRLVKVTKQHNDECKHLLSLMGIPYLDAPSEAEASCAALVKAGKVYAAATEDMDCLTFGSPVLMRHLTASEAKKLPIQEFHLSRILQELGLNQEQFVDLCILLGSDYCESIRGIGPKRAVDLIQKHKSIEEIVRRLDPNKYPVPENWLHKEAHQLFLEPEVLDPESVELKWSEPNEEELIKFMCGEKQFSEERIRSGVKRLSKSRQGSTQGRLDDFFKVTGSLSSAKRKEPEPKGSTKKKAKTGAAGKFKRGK
UniProt P37268: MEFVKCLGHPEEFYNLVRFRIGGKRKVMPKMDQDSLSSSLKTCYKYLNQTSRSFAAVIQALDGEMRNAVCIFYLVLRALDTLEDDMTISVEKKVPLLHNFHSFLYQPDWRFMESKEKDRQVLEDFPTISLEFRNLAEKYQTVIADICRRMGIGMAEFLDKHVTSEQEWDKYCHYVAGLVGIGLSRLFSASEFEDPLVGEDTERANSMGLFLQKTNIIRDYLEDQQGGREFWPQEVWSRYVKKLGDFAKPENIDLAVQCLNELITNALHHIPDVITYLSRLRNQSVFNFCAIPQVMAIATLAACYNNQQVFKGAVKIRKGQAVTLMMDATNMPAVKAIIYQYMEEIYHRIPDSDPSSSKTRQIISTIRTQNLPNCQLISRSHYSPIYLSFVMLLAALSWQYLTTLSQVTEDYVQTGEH
UniProt Q9NRD1: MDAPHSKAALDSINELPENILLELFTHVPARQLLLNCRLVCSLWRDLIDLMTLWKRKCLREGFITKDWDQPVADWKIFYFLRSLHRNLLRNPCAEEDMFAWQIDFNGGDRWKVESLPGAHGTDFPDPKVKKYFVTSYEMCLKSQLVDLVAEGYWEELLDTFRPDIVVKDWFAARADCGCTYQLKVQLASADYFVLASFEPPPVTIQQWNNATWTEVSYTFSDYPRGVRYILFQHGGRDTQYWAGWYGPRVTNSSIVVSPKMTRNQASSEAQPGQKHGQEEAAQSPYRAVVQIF
UniProt Q6P3S6: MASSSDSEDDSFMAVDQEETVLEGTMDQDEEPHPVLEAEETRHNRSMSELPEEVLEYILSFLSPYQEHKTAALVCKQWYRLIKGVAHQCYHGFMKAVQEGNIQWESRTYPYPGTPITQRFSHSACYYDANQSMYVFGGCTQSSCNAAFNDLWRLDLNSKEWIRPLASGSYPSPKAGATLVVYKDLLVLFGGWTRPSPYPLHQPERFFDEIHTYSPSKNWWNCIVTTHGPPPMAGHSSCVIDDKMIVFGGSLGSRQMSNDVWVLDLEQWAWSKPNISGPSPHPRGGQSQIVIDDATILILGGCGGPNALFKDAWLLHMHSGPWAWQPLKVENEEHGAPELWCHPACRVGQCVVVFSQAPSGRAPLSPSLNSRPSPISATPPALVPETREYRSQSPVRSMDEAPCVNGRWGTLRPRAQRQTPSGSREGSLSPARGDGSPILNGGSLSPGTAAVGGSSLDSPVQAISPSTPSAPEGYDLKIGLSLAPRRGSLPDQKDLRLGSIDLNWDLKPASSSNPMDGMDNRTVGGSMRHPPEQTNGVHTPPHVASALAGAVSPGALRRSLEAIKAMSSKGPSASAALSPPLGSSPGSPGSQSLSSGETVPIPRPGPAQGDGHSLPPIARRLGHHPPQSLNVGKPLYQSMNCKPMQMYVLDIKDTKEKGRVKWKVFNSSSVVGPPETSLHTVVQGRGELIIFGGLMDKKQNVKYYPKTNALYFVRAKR
UniProt Q9UKB1: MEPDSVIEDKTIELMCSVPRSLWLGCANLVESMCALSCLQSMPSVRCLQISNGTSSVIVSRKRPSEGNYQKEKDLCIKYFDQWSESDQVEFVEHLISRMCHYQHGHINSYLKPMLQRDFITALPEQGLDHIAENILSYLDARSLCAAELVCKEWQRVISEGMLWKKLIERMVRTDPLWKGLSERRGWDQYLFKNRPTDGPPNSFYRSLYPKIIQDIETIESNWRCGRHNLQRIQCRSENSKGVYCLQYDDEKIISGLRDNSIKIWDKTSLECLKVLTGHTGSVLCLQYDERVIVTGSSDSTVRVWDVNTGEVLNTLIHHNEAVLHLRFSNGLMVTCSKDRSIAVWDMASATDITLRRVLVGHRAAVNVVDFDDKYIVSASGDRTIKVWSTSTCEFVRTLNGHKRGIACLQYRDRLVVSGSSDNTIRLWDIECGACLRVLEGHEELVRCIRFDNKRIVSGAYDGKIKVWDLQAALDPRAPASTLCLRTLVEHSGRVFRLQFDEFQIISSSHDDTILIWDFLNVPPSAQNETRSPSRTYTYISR
UniProt Q9Y3D6: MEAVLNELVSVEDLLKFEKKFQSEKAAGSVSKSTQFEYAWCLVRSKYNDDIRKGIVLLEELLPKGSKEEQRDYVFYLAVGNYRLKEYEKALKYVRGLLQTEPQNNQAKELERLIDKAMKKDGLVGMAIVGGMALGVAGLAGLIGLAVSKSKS
UniProt P22087: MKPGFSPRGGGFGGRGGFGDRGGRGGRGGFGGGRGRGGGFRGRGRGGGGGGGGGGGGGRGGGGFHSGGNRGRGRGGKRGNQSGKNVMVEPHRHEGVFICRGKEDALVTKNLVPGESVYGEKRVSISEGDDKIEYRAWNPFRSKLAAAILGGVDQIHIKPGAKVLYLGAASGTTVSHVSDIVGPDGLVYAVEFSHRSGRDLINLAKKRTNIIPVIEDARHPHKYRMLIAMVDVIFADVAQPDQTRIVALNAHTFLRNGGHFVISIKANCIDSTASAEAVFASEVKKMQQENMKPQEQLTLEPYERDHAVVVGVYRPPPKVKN
UniProt O95363: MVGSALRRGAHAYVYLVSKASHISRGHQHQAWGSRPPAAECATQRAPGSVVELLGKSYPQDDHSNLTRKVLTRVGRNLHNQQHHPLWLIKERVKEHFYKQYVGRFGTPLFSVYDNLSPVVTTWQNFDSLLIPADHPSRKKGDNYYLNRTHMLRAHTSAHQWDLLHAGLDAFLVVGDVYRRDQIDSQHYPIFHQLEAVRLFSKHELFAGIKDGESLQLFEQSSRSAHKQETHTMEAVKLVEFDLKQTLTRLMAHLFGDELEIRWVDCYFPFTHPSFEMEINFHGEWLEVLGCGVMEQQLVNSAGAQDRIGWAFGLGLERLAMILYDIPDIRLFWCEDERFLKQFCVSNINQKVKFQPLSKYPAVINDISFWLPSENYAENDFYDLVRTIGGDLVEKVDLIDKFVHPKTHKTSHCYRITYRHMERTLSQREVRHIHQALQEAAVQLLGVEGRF
UniProt P21333, whole entry, looked up: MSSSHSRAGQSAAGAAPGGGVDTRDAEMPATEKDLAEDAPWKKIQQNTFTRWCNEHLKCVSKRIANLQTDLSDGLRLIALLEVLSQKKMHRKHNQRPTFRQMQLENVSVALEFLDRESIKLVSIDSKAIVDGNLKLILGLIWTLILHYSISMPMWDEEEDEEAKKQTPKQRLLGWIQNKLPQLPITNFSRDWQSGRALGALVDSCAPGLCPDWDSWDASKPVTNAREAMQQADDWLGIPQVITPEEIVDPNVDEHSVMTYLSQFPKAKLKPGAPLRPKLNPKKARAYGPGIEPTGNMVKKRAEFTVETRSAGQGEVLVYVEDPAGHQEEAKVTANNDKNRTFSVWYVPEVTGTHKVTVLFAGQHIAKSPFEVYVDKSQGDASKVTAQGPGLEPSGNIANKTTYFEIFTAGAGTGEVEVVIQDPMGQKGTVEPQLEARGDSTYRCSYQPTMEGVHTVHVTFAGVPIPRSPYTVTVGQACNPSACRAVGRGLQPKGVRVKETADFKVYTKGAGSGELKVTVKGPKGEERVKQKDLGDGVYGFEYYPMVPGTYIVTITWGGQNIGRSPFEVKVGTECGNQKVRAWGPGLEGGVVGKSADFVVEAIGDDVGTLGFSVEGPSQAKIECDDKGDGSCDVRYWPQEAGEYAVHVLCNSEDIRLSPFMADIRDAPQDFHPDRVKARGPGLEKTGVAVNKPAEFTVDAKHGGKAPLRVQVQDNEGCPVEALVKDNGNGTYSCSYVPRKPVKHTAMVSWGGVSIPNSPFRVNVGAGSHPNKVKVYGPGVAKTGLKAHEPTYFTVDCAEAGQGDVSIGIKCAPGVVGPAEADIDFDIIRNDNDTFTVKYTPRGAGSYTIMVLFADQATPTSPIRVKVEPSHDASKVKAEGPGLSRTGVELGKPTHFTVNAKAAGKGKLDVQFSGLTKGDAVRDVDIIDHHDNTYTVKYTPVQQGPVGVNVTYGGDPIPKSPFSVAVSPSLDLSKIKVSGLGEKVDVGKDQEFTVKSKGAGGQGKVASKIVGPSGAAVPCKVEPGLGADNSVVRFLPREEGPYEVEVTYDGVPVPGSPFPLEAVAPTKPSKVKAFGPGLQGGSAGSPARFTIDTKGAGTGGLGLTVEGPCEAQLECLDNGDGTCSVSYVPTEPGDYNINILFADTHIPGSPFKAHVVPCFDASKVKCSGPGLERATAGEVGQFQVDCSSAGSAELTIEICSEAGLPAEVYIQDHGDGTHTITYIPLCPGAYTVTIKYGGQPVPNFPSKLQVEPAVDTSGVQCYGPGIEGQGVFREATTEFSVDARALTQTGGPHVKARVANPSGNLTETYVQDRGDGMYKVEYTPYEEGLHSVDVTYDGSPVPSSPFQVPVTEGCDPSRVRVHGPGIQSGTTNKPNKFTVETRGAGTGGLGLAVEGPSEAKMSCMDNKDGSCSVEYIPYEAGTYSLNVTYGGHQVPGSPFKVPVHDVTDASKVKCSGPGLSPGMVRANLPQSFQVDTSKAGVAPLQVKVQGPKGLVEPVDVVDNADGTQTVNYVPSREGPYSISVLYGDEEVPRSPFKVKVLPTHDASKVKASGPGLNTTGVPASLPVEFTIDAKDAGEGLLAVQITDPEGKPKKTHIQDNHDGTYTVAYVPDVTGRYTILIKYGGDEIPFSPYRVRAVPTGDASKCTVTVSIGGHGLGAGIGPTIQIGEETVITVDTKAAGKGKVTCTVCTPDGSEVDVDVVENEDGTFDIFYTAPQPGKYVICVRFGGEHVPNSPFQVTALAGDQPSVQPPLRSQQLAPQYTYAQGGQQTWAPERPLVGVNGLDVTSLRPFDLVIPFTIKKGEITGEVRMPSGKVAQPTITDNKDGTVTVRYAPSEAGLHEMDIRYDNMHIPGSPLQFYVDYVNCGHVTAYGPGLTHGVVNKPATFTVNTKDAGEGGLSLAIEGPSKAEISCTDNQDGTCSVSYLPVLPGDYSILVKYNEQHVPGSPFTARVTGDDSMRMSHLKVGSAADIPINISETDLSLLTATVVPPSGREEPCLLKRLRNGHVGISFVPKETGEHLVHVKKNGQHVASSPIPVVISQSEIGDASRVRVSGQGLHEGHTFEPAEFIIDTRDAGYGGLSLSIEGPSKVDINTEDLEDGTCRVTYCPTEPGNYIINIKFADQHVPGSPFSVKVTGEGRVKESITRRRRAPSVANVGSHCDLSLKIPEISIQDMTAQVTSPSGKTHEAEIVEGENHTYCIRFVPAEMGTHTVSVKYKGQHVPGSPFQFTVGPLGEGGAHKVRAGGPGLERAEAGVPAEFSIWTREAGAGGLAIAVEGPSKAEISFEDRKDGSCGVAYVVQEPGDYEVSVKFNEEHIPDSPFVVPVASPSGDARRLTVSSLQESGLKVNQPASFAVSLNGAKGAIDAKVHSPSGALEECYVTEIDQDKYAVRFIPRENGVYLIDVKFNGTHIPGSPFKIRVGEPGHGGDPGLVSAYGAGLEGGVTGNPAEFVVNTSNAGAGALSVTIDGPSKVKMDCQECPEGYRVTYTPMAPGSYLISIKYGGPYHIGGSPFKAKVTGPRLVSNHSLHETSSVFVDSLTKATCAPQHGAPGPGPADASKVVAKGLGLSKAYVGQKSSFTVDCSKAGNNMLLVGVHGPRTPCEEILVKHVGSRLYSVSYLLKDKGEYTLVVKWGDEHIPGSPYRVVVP

Key:
Assay in all cases: log2 fold change, soluble protein after heating vs DMSO (PISA); higher = thermal stabilisation; K562 cells, 10 uM, 30 min; active = over 0.2 and 3.5 SD of the protein, either way, in both replicates (recomputed)
erlotinib = compound: C#Cc1cccc(Nc2ncnc3cc(OCCOC)c(OCCOC)cc23)c1 [erlotinib]
Procedure, shortened: (§1)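 Soluble protein was defined as the supernatant after 21,000xg for 90 min. It came from K562 cells at 2×10^6 cells/mL given 10 μM compound for 30 min, heated in aliquots for 3 min across 48°C-58°C, pooled, and extracted in PBS with 0.5% NP-40 at 4°C, and was quantified by TMTpro 16plex LC-MS/MS with equalised channel sums. Thermal stability against control samples, from duplicates, is reported as log2 fold change.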

[1] = compound: C/C(=N\NC(=O)C1=CC(=CC=C1)S(=O)(=O)N2CCOCC2)/C3=C(C=CC(=C3)Cl)O
Procedure, shortened: as §1

[2] = compound: C1=CC(=C(C=C1Cl)C2=NC3=NC=CN=C3C(=N2)NC4=CC=NC=C4)F
Procedure, shortened: as §1

[3] = compound: C1=CC(=CC=C1C2=NC3=C(N2)C=C(C=C3)C(=O)N)OC4=CC=C(C=C4)Cl
Procedure, shortened: as §1

[4] = compound: C1=CC2=C(C=CC(=C2)/C=C\3/C(=O)NC(=NCC4=CC=CS4)S3)N=C1
Procedure, shortened: as §1

[5] = compound: C1=CC2=NC=CN=C2C=C1/C=C/3\C(=O)NC(=O)S3
Procedure, shortened: as §1

[6] = compound: C1=CC=C(C=C1)C2=NC(=C(N2)C3=CC=NC=C3)C4=CC(=C(C=C4)Cl)O
Procedure, shortened: as §1

[7] = compound: C1=CC=C2C(=C1)C3=NNC4=CC=CC(=C43)C2=O
Procedure, shortened: as §1

[8] = compound: C1CCN(C1)C(=O)NC2=CC=CC(=C2)NC3=NC=C(C(=N3)NCCC4=CN=CN4)Br
Procedure, shortened: as §1

[9] = compound: C1CN(CCC1(CC2=CC=C(C=C2)Cl)N)C3=NC=NC4=C3C=CN4
Procedure, shortened: as §1

ibrutinib = compound: C=CC(=O)N1CCC[C@@H](n2nc(-c3ccc(Oc4ccccc4)cc3)c3c(N)ncnc32)C1 [ibrutinib]
Procedure, shortened: as §1

[10] = compound: CC(=O)c1cnc2ccc(-c3cc(Cl)c(O)c(Cl)c3)nc2c1N[C@H]1CC[C@H](CN(C)C)CC1
Procedure, shortened: as §1

ralimetinib = compound: CC(C)(C)Cn1c(N)nc2ccc(-c3[nH]c(C(C)(C)C)nc3-c3ccc(F)cc3)nc21 [ralimetinib]
Procedure, shortened: as §1

[11] = compound: CC(C)(O)CC(=O)NCCn1ccc2ncnc(Nc3ccc(Oc4cccc(C(F)(F)F)c4)c(Cl)c3)c21
Procedure, shortened: as §1

[12] = compound: CC(C)C1=C2N=C(C=C(N2N=C1)NCC3=CC=CC=C3)NCCCCCCN
Procedure, shortened: as §1

[13] = compound: CC(C)C[C@@H](C=O)NC(=O)[C@H](CC(C)C)NC(=O)[C@H](CC(C)C)NC(=O)OCc1ccccc1
Procedure, shortened: as §1

[14] = compound: CC1=C(C(CC(=O)N1)C2=CC=C(C=C2)C(F)(F)F)C(=O)NC3=C(C=C4C(=C3)C=NN4)F
Procedure, shortened: as §1

[15] = compound: CC1=C(C2=C(C=C1)C(=O)C3=CC=CC=C3N2CCCN)C
Procedure, shortened: as §1

IRAK-1-4 Inhibitor I = compound: C1COCCN1CCN2C3=CC=CC=C3N=C2NC(=O)C4=CC(=CC=C4)[N+](=O)[O-] [IRAK-1-4 Inhibitor I]
Procedure, shortened: as §1

pinometostat = compound: CC(C)N(C[C@H]1O[C@@H](n2cnc3c(N)ncnc32)[C@H](O)[C@@H]1O)[C@H]1C[C@@H](CCc2nc3cc(C(C)(C)C)ccc3[nH]2)C1 [pinometostat]
Procedure, shortened: as §1

| Target | log2 fold change (erlotinib) | log2 fold change [1] | log2 fold change [2] | log2 fold change [3] | log2 fold change [4] | log2 fold change [5] | log2 fold change [6] | log2 fold change [7] | log2 fold change [8] | log2 fold change [9] | log2 fold change (ibrutinib) | log2 fold change [10] | log2 fold change (ralimetinib) | log2 fold change [11] | log2 fold change [12] | log2 fold change [13] | log2 fold change [14] | log2 fold change [15] | log2 fold change (IRAK-1-4 Inhibitor I) | log2 fold change (pinometostat) |
| --- | --- | --- | --- | --- | --- | --- | --- | --- | --- | --- | --- | --- | --- | --- | --- | --- | --- | --- | --- | --- |
| FKBP14 (UniProt Q9NWM8) | inactive: -0.266 | inactive: -0.058 | inactive: -0.045 | inactive: -0.083 | inactive: 0.032 | inactive: 0.044 | inactive: -0.002 | inactive: 0 | inactive: -0.01 | inactive: 0.041 | inactive: -0.021 | inactive: 0.002 | inactive: 0.01 | inactive: 0.074 | inactive: 0.03 | inactive: -0.055 | inactive: 0.092 | inactive: 0.037 |  |  |
| FCHO1 (UniProt O14526) | inactive: 0.065 | inactive: 0.104 | inactive: -0.032 | inactive: -0.011 | inactive: 0.07 |  | inactive: -0.144 | inactive: -0.061 | inactive: -0.005 | inactive: -0.029 |  | active: -0.593 | inactive: -0.081 | inactive: -0.073 | inactive: 0.045 | inactive: 0.191 |  | inactive: -0.011 | inactive: -0.114 | inactive: 0.05 |
| FAM210B (UniProt Q96KR6) | inactive: 0.059 | inactive: -0.008 | inactive: -0.01 | inactive: 0.033 | inactive: -0.024 | inactive: 0.049 | inactive: 0.022 | inactive: 0.034 |  |  | inactive: 0.052 | inactive: -0.013 | inactive: -0.075 | inactive: 0.002 | inactive: 0.057 | inactive: 0.009 | inactive: -0.024 |  | inactive: 0.044 | inactive: -0.055 |
| FEN1 (UniProt P39748) | inactive: 0.126 | inactive: 0.098 | inactive: 0.091 | inactive: 0.026 | inactive: 0.172 | inactive: 0.003 | inactive: 0.118 | inactive: 0.026 | inactive: 0.007 | inactive: -0.068 | inactive: -0.016 | inactive: -0.116 | inactive: -0.008 | inactive: -0.368 | inactive: -0.393 | inactive: 0.039 |  | inactive: -0.016 | inactive: -0.071 | inactive: -0.03 |
| FAM83A (UniProt Q86UY5) | inactive: 0.1 | inactive: 0.18 | inactive: -0.109 | inactive: 0.01 | inactive: 0.079 |  | inactive: 0.06 | inactive: -0.001 | inactive: 0.027 | inactive: -0.074 |  | inactive: -0.314 | inactive: -0.03 | inactive: -0.088 | inactive: -0.171 | inactive: 0.257 | inactive: -0.238 | inactive: -0.073 |  |  |
| FDXR isoform 7 (UniProt P22570) | inactive: 0.092 | inactive: 0.033 | inactive: 0.109 | inactive: -0.126 | inactive: 0.076 | inactive: -0.13 | inactive: 0.064 | inactive: 0 | inactive: 0.025 | inactive: 0.019 | inactive: 0.046 | inactive: -0.086 | inactive: -0.015 | active: -0.27 | inactive: -0.091 | inactive: 0.015 |  | inactive: 0.125 | inactive: 0.031 | inactive: -0.024 |
| FAM76A isoform 3 (UniProt Q8TAV0) | inactive: 0.077 | inactive: -0.063 | inactive: 0.05 | inactive: 0.009 | inactive: 0.006 | inactive: -0.147 |  | inactive: 0.085 | inactive: 0.1 | inactive: 0.062 | inactive: -0.124 | inactive: 0.023 |  | inactive: -0.021 | inactive: -0.004 |  |  | inactive: 0.016 |  |  |
| FLCN (UniProt Q8NFG4) | inactive: 0.24 | inactive: -0.013 | inactive: -0.079 | inactive: 0.338 | inactive: 0.034 |  | inactive: -0.21 | inactive: -0.053 | inactive: -0.069 | inactive: -0.038 |  | inactive: 0.067 | inactive: -0.189 | inactive: -0.179 | inactive: 0.033 | inactive: 0.257 | inactive: 0.082 | inactive: 0.081 | inactive: 0.108 | inactive: 0.013 |
| FAM50A (UniProt Q14320) | inactive: 0.015 | inactive: 0.051 | inactive: 0.054 | inactive: -0.017 | inactive: -0.009 | inactive: 0.062 | inactive: -0.019 | inactive: -0.001 | inactive: -0.026 | inactive: -0.065 | inactive: -0.011 | inactive: -0.01 | inactive: -0.029 | inactive: -0.027 | inactive: 0 | inactive: 0.043 |  | inactive: 0.053 | inactive: -0.014 | inactive: -0.016 |
| FDFT1 (UniProt P37268) | inactive: 0.126 | inactive: -0.026 | inactive: -0.01 | inactive: 0.037 | inactive: 0.209 | inactive: 0 | inactive: 0.011 | inactive: 0.144 | inactive: -0.039 | inactive: 0.059 | inactive: 0.007 | inactive: -0.025 | inactive: -0.028 | inactive: -0.015 | inactive: -0.083 | inactive: 0.077 |  | inactive: -0.06 | inactive: 0.001 | inactive: -0.042 |
| FBXO6 (UniProt Q9NRD1) | inactive: -0.069 | inactive: 0.046 | inactive: 0.075 | inactive: 0.007 | inactive: 0.048 | inactive: 0.007 | inactive: 0.021 | inactive: 0.002 | inactive: -0.031 | inactive: 0 | inactive: 0.015 | inactive: -0.068 | inactive: 0.004 | inactive: -0.127 | active: 0.437 | inactive: -0.046 |  | inactive: 0.068 | inactive: -0.015 | inactive: -0.021 |
| FBXO42 (UniProt Q6P3S6) | inactive: 0.026 | inactive: -0.006 | inactive: -0.002 | inactive: 0.025 | inactive: 0.025 | inactive: 0.055 | inactive: 0.051 | inactive: -0.006 | inactive: -0.05 | inactive: -0.024 | inactive: -0.009 | inactive: -0.108 | inactive: -0.064 | inactive: -0.093 | inactive: -0.169 | inactive: 0.011 |  | inactive: 0.086 | inactive: -0.103 | inactive: -0.051 |
| FBXW11 (UniProt Q9UKB1) | inactive: 0.036 | inactive: -0.211 |  | inactive: 0.11 | inactive: 0.148 |  | inactive: -0.046 | inactive: -0.005 | inactive: -0.018 | inactive: 0.147 |  | inactive: 0.079 | inactive: 0.082 |  | inactive: -0.093 | inactive: 0.14 |  | inactive: 0.001 | inactive: -0.074 | inactive: 0.138 |
| FIS1 (UniProt Q9Y3D6) | inactive: 0.013 | inactive: 0.066 | inactive: 0.015 | inactive: 0.01 | inactive: -0.034 | inactive: 0.024 | inactive: -0.025 | inactive: 0.02 | inactive: -0.06 | inactive: 0.09 | inactive: 0.003 | inactive: 0.067 | inactive: -0.036 | inactive: 0.029 | inactive: -0.023 | inactive: -0.025 |  | inactive: -0.031 | inactive: 0.029 | inactive: -0.074 |
| FHOD1 (UniProt Q9Y613) | inactive: -0.002 | inactive: -0.259 | inactive: -0.337 | inactive: -0.059 | inactive: 0.059 | inactive: 0.146 | inactive: -0.034 | inactive: -0.007 |  |  | inactive: 0.011 | inactive: 0.042 | inactive: 0.193 | inactive: 0.035 | inactive: -0.197 | inactive: 0.148 |  |  | inactive: -0.053 | inactive: 0.458 |
| FBL (UniProt P22087) | inactive: 0.06 | inactive: -0.153 | active: -0.566 | inactive: 0.013 | inactive: -0.102 | inactive: 0.13 | inactive: -0.099 | inactive: -0.091 | inactive: 0.054 | inactive: -0.117 | inactive: 0.048 | inactive: -0.03 | inactive: 0.17 | inactive: 0.146 | inactive: 0.199 | inactive: 0.184 |  | inactive: 0.206 | inactive: -0.094 | inactive: 0.319 |
| FARS2 (UniProt O95363) | inactive: 0 | inactive: 0.081 | inactive: -0.046 | inactive: 0.061 | inactive: -0.03 | inactive: -0.018 | inactive: 0.014 | inactive: 0.065 | inactive: 0.084 | inactive: -0.057 | inactive: -0.038 | inactive: -0.05 | inactive: -0.004 | inactive: -0.028 | inactive: -0.182 | inactive: -0.001 |  | inactive: -0.018 | inactive: 0 | inactive: 0.002 |
| FLNA (UniProt P21333) | inactive: 0.022 | inactive: 0.072 | inactive: -0.002 | inactive: -0.032 | inactive: -0.022 | inactive: 0.005 | inactive: 0.013 | inactive: -0.017 | inactive: -0.018 | inactive: -0.133 | inactive: -0.111 | inactive: 0.031 | inactive: 0.035 | inactive: -0.086 | inactive: -0.112 | inactive: 0.049 |  | inactive: -0.027 | inactive: -0.046 | inactive: 0.081 |

Two records picked at random from the list so far:

| Target | log2 fold change (erlotinib) | log2 fold change [1] | log2 fold change [2] | log2 fold change [3] | log2 fold change [4] | log2 fold change [5] | log2 fold change [6] | log2 fold change [7] | log2 fold change [8] | log2 fold change [9] | log2 fold change (ibrutinib) | log2 fold change [10] | log2 fold change (ralimetinib) | log2 fold change [11] | log2 fold change [12] | log2 fold change [13] | log2 fold change [14] | log2 fold change [15] | log2 fold change (IRAK-1-4 Inhibitor I) | log2 fold change (pinometostat) |
| --- | --- | --- | --- | --- | --- | --- | --- | --- | --- | --- | --- | --- | --- | --- | --- | --- | --- | --- | --- | --- |
| FBXW11 (UniProt Q9UKB1) | inactive: 0.036 | inactive: -0.211 |  | inactive: 0.11 | inactive: 0.148 |  | inactive: -0.046 | inactive: -0.005 | inactive: -0.018 | inactive: 0.147 |  | inactive: 0.079 | inactive: 0.082 |  | inactive: -0.093 | inactive: 0.14 |  | inactive: 0.001 | inactive: -0.074 | inactive: 0.138 |
| FCHO1 (UniProt O14526) | inactive: 0.065 | inactive: 0.104 | inactive: -0.032 | inactive: -0.011 | inactive: 0.07 |  | inactive: -0.144 | inactive: -0.061 | inactive: -0.005 | inactive: -0.029 |  | active: -0.593 | inactive: -0.081 | inactive: -0.073 | inactive: 0.045 | inactive: 0.191 |  | inactive: -0.011 | inactive: -0.114 | inactive: 0.05 |
